# Source: the supplement of paper PMC8728848
# The list shows a part of the results.
# B1: Protein L(B1-B4) (Finegoldia magna), Q51912 (protein)
# chain: KEETPETPETDSEEEVTIKANLIFANGSTQTAEFKGTFEKATSEAYAYADTLKKDNGEYTVDVADKGYTLNIKFAGKEKTPEEPKEEVTIKANLIYADGKTQTAEFKGTFEEATAEAYRYADALKKDNGEYTVDVADKGYTLNIKFAGKEKTPEEPKEEVTIKANLIYADGKTQTAEFKGTFEEATAEAYRYADLLAKENGKYTVDVADKGYTLNIKFAGKEKTPEEPKEEVTIKANLIYADGKTQTAEFKGTFAEATAEAYRYADLLAKENGKYTADLEDGGYTINIRFAG
# Columns and labels:
# Assay in all cases: glycan array binding signal (z-score within array); higher = stronger binding
# Settings in all cases: glycan notation: IUPAC condensed, linker removed
# [1] = target: Gal(b1-3)GlcNAc(b1-2)Man(a1-3)[Gal(b1-3)GlcNAc(b1-2)Man(a1-6)]Man(b1-4)GlcNAc(b1-4)[Fuc(a1-6)]GlcNAc
# Method in brief: (§1)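 Glycan array data were curated from 3228 arrays in the Consortium for Functional Glycomics database and kept only where the protein sequence was available. Glycan names were converted to IUPAC-condensed notation, and columns mapping to the same glycan were averaged. The binding signal is a within-array Z-score, averaged across arrays of the same protein sequence at different concentrations or buffers and across linkers. Negative Z-scores can be read as non-binding.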
# [2] = target: Gal(b1-3)GlcNAc(b1-2)Man(a1-3)[GlcNAc(b1-4)][Gal(b1-3)GlcNAc(b1-2)Man(a1-6)]Man(b1-4)GlcNAc(b1-4)GlcNAc
# Method in brief: as §1
# [3] = target: Gal(b1-3)GlcNAc(b1-2)[Gal(b1-3)GlcNAc(b1-6)]Man(a1-6)[Gal(b1-3)GlcNAc(b1-2)Man(a1-3)]Man(b1-4)GlcNAc(b1-4)GlcNAc
# Method in brief: as §1
# [4] = target: Gal(b1-3)GlcNAc(b1-3)Gal(b1-3)GlcNAc
# Method in brief: as §1
# [5] = target: Gal(b1-3)GlcNAc(b1-3)Gal(b1-4)Glc
# Method in brief: as §1
# [6] = target: Gal(b1-3)GlcNAc(b1-3)Gal(b1-4)GlcNAc
# Method in brief: as §1
# [7] = target: Gal(b1-3)GlcNAc(b1-3)Gal(b1-4)GlcNAc(b1-2)Man(a1-3)[Gal(b1-3)GlcNAc(b1-3)Gal(b1-4)GlcNAc(b1-2)Man(a1-6)]Man(b1-4)GlcNAc(b1-4)GlcNAc
# Method in brief: as §1
# [8] = target: Gal(b1-3)GlcNAc(b1-3)Gal(b1-4)GlcNAc(b1-2)[Gal(b1-3)GlcNAc(b1-3)Gal(b1-4)GlcNAc(b1-6)]Man(a1-6)[Gal(b1-3)GlcNAc(b1-3)Gal(b1-4)GlcNAc(b1-2)Man(a1-3)]Man(b1-4)GlcNAc(b1-4)[Fuc(a1-6)]GlcNAc
# Method in brief: as §1
# [9] = target: Gal(b1-3)GlcNAc(b1-3)Gal(b1-4)GlcNAc(b1-3)Gal(b1-4)GlcNAc(b1-2)[Gal(b1-3)GlcNAc(b1-3)Gal(b1-4)GlcNAc(b1-3)Gal(b1-4)GlcNAc(b1-6)]Man(a1-6)[Gal(b1-3)GlcNAc(b1-3)Gal(b1-4)GlcNAc(b1-3)Gal(b1-4)GlcNAc(b1-2)Man(a1-3)]Man(b1-4)GlcNAc(b1-4)[Fuc(a1-6)]GlcNAc
# Method in brief: as §1
# [10] = target: Gal(b1-3)GlcNAc(b1-3)Gal(b1-4)GlcNAc(b1-6)[Gal(b1-3)GlcNAc(b1-3)]Gal(b1-4)Glc
# Method in brief: as §1
# [11] = target: Gal(b1-3)GlcNAc(b1-3)Gal(b1-4)[Fuc(a1-3)]GlcNAc(b1-6)[Gal(b1-3)GlcNAc(b1-3)]Gal(b1-4)Glc
# Method in brief: as §1
# [12] = target: Gal(b1-3)GlcNAc(b1-3)GalNAc
# Method in brief: as §1
# [13] = target: Gal(b1-3)GlcNAc(b1-6)Gal(b1-4)GlcNAc
# Method in brief: as §1
# [14] = target: Gal(b1-3)GlcNAc(b1-6)GalNAc
# Method in brief: as §1
# [15] = target: Gal(b1-3)GlcNAc(b1-6)[Gal(b1-3)]GalNAc
# Method in brief: as §1
# Gal(b1-3)GlcNAc6S = target: Gal(b1-3)GlcNAc6S
# Method in brief: as §1
# [16] = target: Gal(b1-3)[Fuc(a1-4)]GlcNAc
# Method in brief: as §1
# [17] = target: Gal(b1-3)[Fuc(a1-4)]GlcNAc(b1-2)Man
# Method in brief: as §1
# [18] = target: Gal(b1-3)[Fuc(a1-4)]GlcNAc(b1-2)Man(a1-3)[Gal(b1-3)[Fuc(a1-4)]GlcNAc(b1-2)Man(a1-6)]Man(b1-4)GlcNAc(b1-4)[Fuc(a1-6)]GlcNAc
# Method in brief: as §1
# [19] = target: Gal(b1-3)[Fuc(a1-4)]GlcNAc(b1-3)Gal(b1-3)[Fuc(a1-4)]GlcNAc
# Method in brief: as §1
# [20] = target: Gal(b1-3)[Fuc(a1-4)]GlcNAc(b1-3)Gal(b1-4)GlcNAc
# Method in brief: as §1
# [21] = target: Gal(b1-3)[Fuc(a1-4)]GlcNAc(b1-3)Gal(b1-4)[Fuc(a1-3)]GlcNAc
# Method in brief: as §1
binder,measurement,setting,value
B1,glycan array binding signal (z-score),[1],1.11
same,glycan array binding signal (z-score),[2],1.19
same,glycan array binding signal (z-score),[3],0.177
same,glycan array binding signal (z-score),[4],-0.89
same,glycan array binding signal (z-score),[5],-1.05
same,glycan array binding signal (z-score),[6],-0.637
same,glycan array binding signal (z-score),[7],0.745
same,glycan array binding signal (z-score),[8],0.991
same,glycan array binding signal (z-score),[9],1.48
same,glycan array binding signal (z-score),[10],-0.192
same,glycan array binding signal (z-score),[11],-0.894
same,glycan array binding signal (z-score),[12],0.468
same,glycan array binding signal (z-score),[13],-0.642
same,glycan array binding signal (z-score),[14],-0.4
same,glycan array binding signal (z-score),[15],1.99
same,glycan array binding signal (z-score),Gal(b1-3)GlcNAc6S,-0.474
same,glycan array binding signal (z-score),[16],-0.678
same,glycan array binding signal (z-score),[17],1.5
same,glycan array binding signal (z-score),[18],1.84
same,glycan array binding signal (z-score),[19],0.166
same,glycan array binding signal (z-score),[20],-0.71
same,glycan array binding signal (z-score),[21],0.214

# Exported bar-delimited: entries from further up
binder | measurement | setting | value
B1 | glycan array binding signal (z-score) | [8] | 0.991
same | glycan array binding signal (z-score) | [9] | 1.48
